# Experimental data taken from article PMC7819943, “Rice protein-binding microarrays: a tool to detect cis-acting elements near promoter regions in rice”.
# By UniProt entry, the sequences of proteins in these tests, tags left out.
# UniProt Q0JBA9, entry or part of it: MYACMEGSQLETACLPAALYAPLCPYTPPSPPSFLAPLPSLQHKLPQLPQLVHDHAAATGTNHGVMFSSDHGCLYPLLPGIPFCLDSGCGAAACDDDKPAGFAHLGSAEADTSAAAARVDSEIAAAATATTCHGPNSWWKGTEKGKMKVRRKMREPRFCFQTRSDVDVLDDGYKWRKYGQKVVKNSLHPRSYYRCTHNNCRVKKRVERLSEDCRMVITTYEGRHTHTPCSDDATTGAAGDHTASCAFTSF
# The list shows a part of the results.
# Biological target: OsWRKY34 (Oryza sativa, UniProt Q0JBA9 1-250)
# Test: protein-binding microarray (RPBM); PBS, 2% BSA, 51.3 ng/ul salmon testes DNA, 50 uM zinc acetate, 200 nM TF, 25 C, 1 h; high values mean tight binding
# Conditions: protein: recombinant; tags: N-terminal polyhistidine and DsRed monomer fusion (pET32a); label: CyDye5-dUTP incorporated in the synthesized complementary strand; 3' TTTTT single-stranded linker to array surface; dsDNA, one strand shown
# Outline: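 In PBS with 2% BSA, salmon testes DNA and 50 µM zinc acetate, 200 nM protein was incubated on a custom Agilent array at 25 °C for 1 h and then washed off. The array had been made double-stranded by primer extension with Cy5-dUTP and blocked with 2% BSA. The proteins were transcription factors fused N-terminally to polyhistidine and DsRed, expressed in E. coli BL21-CodonPlus and purified on Ni–NTA. The binding signal is per-feature fluorescence intensity (arbitrary units) from an Axon 4000B scanner.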
row,Sequence,binding signal
1,GAACAACAACATGCCGCACGTGCGTATATATATATATATCCGGAGTCACCTAGTGCAG,10800 fluorescence intensity (a.u.)
2,CACACATTGTTAACATCACAGTGTACTAGCCATCTACTGTCGGAGTCACCTAGTGCAG,8600 fluorescence intensity (a.u.)
3,ACCCACCATTATTCTCCTCCGGGCACCACGTCGAACACCTCGGAGTCACCTAGTGCAG,8820 fluorescence intensity (a.u.)
4,ACCGGCGGCCACTCATCGATCCACTACCCCACTGCACTCGCGGAGTCACCTAGTGCAG,9480 fluorescence intensity (a.u.)
5,CTCTACTTTTCCTGGGCCCTAGGCCATCGCACTTCTTGCCCGGAGTCACCTAGTGCAG,8990 fluorescence intensity (a.u.)
6,GATCTCAATCCGACCAGGGACGGGGCCTCCTCGCATTTCCCGGAGTCACCTAGTGCAG,8060 fluorescence intensity (a.u.)
7,GTATTAGGACCTATTTCGGGAAACTTTTAGTAGCTGTATCCGGAGTCACCTAGTGCAG,8340 fluorescence intensity (a.u.)
8,CCCATCCCAGCCTGCAGAGCCGCCGCCGCCGCCGCAAGCGCGGAGTCACCTAGTGCAG,8270 fluorescence intensity (a.u.)
9,TTGTTGCTCTACCAATTGTTTCTCTTTTTACGGTGTATTCCGGAGTCACCTAGTGCAG,10000 fluorescence intensity (a.u.)
10,ATGTGTATATTAGCATTATGATTTATGTCCTTATACTCCTCGGAGTCACCTAGTGCAG,8200 fluorescence intensity (a.u.)
11,GTCGCCGTAAACTTCGCCGTTTCCTGTAATTTCCTGCTTCCGGAGTCACCTAGTGCAG,9160 fluorescence intensity (a.u.)
12,CAGTGTCCGTTTTCTCCGACAAACTCGGCGTGGCCACAGTCGGAGTCACCTAGTGCAG,9840 fluorescence intensity (a.u.)
13,ATCCCTTGCCAAAACTGCAATATCATATCTAGCTAAACTACGGAGTCACCTAGTGCAG,11000 fluorescence intensity (a.u.)
14,GCCTCCACGTCATCCTTTTTCTCCAAACCGTTGGATCTAACGGAGTCACCTAGTGCAG,11400 fluorescence intensity (a.u.)
15,GTAGCTTCGGCTTTGAGATTCGTGCAGGGGTGGGATCCTGCGGAGTCACCTAGTGCAG,8420 fluorescence intensity (a.u.)
16,GATCACTTGGTCTGACCCTTTTTTCGCTACTCCGTTAAGCCGGAGTCACCTAGTGCAG,10100 fluorescence intensity (a.u.)
17,TAAGACGAATGGTCAAACATGTAAGAAAAAGTCAACGGTACGGAGTCACCTAGTGCAG,12900 fluorescence intensity (a.u.)
18,AGCGTCGCGGTGGCTTTGTGGGAGGGGAGTAGTAGCGGTACGGAGTCACCTAGTGCAG,10000 fluorescence intensity (a.u.)
19,ATCTCCCGCGGTTTCGATTTGGGTTTATTTGGGCGGTGGGCGGAGTCACCTAGTGCAG,18800 fluorescence intensity (a.u.)
20,CCGCCGATCCATCGCCGCCGCTGCCGCCGTTTTCTATTGTCGGAGTCACCTAGTGCAG,8670 fluorescence intensity (a.u.)
21,GCACACTGGCACCCGATTTGTTGGTTTCTTACCCCTCCTACGGAGTCACCTAGTGCAG,9690 fluorescence intensity (a.u.)
22,GAGTTTTTGCTGGAATTGGTTAAATCCTGAACTTATTTTTCGGAGTCACCTAGTGCAG,8180 fluorescence intensity (a.u.)
23,AATCTTCAGTGGCTGGGCCACTTACATGTTGGCCTCACATCGGAGTCACCTAGTGCAG,10100 fluorescence intensity (a.u.)
24,TGGCAAATGTCATTGTTTGTTGACTGTATTTTAATGGTATCGGAGTCACCTAGTGCAG,8250 fluorescence intensity (a.u.)
25,TGAAGGTGCTGTGTTTTGAGTGCTTGGGATGAGCTGCGTGCGGAGTCACCTAGTGCAG,8480 fluorescence intensity (a.u.)
26,TGGTCGGCGATTCTAGGGTTAGGGTTAGGGTTTTTCTACTCGGAGTCACCTAGTGCAG,12200 fluorescence intensity (a.u.)
27,AACCTGCATTGTTCTTTCCTTCTCAATTGTTGCAATTGTACGGAGTCACCTAGTGCAG,11400 fluorescence intensity (a.u.)

row,Sequence,binding signal
1,GTTCATCTCTTCACTGTACGAATTTACTAGTTTTTTTCTTCGGAGTCACCTAGTGCAG,8730 fluorescence intensity (a.u.)
2,GCCACCACCACCTCCCTCCACCACCATGCCGTCACCATCCCGGAGTCACCTAGTGCAG,8270 fluorescence intensity (a.u.)
3,CTCCAGCATTACCTGTCCCCACATGTCAGTGACCTCACCCCGGAGTCACCTAGTGCAG,8260 fluorescence intensity (a.u.)
4,GACCTTTTTTCCTTTCGTCTGACTGACACATCAGTCAAAACGGAGTCACCTAGTGCAG,11200 fluorescence intensity (a.u.)
5,CGTGCGTGATTGTATTGTATTCTATTTTTTTTAAAAAAAACGGAGTCACCTAGTGCAG,10100 fluorescence intensity (a.u.)
6,CTTGTGGCTTCTAGTTCATTTTCTGGTTTCTACAACTACACGGAGTCACCTAGTGCAG,8240 fluorescence intensity (a.u.)
7,GATAGGCTCAATCTCACAATCACTATATGCATATATAATACGGAGTCACCTAGTGCAG,9420 fluorescence intensity (a.u.)
8,CCTCTCGGTTTCTTCACCCTTATCACCTCGTTTTCTTTCCCGGAGTCACCTAGTGCAG,10000 fluorescence intensity (a.u.)
9,CACCCCACCCACAAATTAAACACACCACCCTCAATATATACGGAGTCACCTAGTGCAG,9620 fluorescence intensity (a.u.)
10,CCGTTGGCTTTTTTAAACATGTTTGACCGTTTATTTTATTCGGAGTCACCTAGTGCAG,14100 fluorescence intensity (a.u.)
11,TCATCGCCATTCCTAACTCATCTCCGTTCCATACTCTTCTCGGAGTCACCTAGTGCAG,12700 fluorescence intensity (a.u.)
12,CACCATGTACACATTCTCTCACAGTGCATGCATAAATTAACGGAGTCACCTAGTGCAG,8710 fluorescence intensity (a.u.)
13,CCGCCGCCTCCGGCCGCCGTACCAGCCTCACCTCGCTTCGCGGAGTCACCTAGTGCAG,8980 fluorescence intensity (a.u.)
14,TTTTAATTCTTGCTCCTGATTGAATCGCATCCCTCGACCACGGAGTCACCTAGTGCAG,9240 fluorescence intensity (a.u.)
15,AAACAGGTCACTACTATCCTCCATATATATATATTTTAGACGGAGTCACCTAGTGCAG,9110 fluorescence intensity (a.u.)
16,GACGGGCGGGGCCCGACGGGGAGGAGGTAGGCGGGCTTGGCGGAGTCACCTAGTGCAG,11700 fluorescence intensity (a.u.)
17,ATTAAATTCTTATCCATTCATCTCTCTCCTTTTATTCACACGGAGTCACCTAGTGCAG,9180 fluorescence intensity (a.u.)
18,GTCCTTTTTCTTACTGCTGTACATGTATGAAACTTGCACGCGGAGTCACCTAGTGCAG,9350 fluorescence intensity (a.u.)
19,ATCATCCAATCCCTCTCGCGCTTTTTCATGTGGTTTCTCTCGGAGTCACCTAGTGCAG,10700 fluorescence intensity (a.u.)
20,GATTAATTTGCCATTGGATCCAAGCACACTCCTAGGTAAGCGGAGTCACCTAGTGCAG,8910 fluorescence intensity (a.u.)
21,TTCACCGGCCGCGCGCTGTCTGTAGAACTCCCATACATGACGGAGTCACCTAGTGCAG,8640 fluorescence intensity (a.u.)
22,ATAGATGACGCCGTTGATTTTTTCTCACATGTTTGACCGTCGGAGTCACCTAGTGCAG,15600 fluorescence intensity (a.u.)
23,TCCAGTAGCCGCGCGTGCCCACGACGCACCACCCACACACCGGAGTCACCTAGTGCAG,9880 fluorescence intensity (a.u.)
24,GTTCTCTTTTTTGTTTGTCTTTCCTAGTGCAATATGTTTCCGGAGTCACCTAGTGCAG,10700 fluorescence intensity (a.u.)
25,AATTCCCAAACTCCCGCCGCCGCCGCCGCCGCCATCGATGCGGAGTCACCTAGTGCAG,8250 fluorescence intensity (a.u.)
26,GTATGTCCGAGATTTAGTGTTACACGTCAGATCCAACACACGGAGTCACCTAGTGCAG,8570 fluorescence intensity (a.u.)
27,GTGTTACCGTTGGCTTAGTTCACGCCTGACCATTTTTTTTCGGAGTCACCTAGTGCAG,12700 fluorescence intensity (a.u.)

# 3 consecutive entries from above, quoted:
row,Sequence,binding signal
6,CTTGTGGCTTCTAGTTCATTTTCTGGTTTCTACAACTACACGGAGTCACCTAGTGCAG,8240 fluorescence intensity (a.u.)
7,GATAGGCTCAATCTCACAATCACTATATGCATATATAATACGGAGTCACCTAGTGCAG,9420 fluorescence intensity (a.u.)
8,CCTCTCGGTTTCTTCACCCTTATCACCTCGTTTTCTTTCCCGGAGTCACCTAGTGCAG,10000 fluorescence intensity (a.u.)
